The text below walks through data of paper PMC11357106.

The chains behind the UniProt entries cited, without tags or fusion partners.
UniProt Q6EVK6: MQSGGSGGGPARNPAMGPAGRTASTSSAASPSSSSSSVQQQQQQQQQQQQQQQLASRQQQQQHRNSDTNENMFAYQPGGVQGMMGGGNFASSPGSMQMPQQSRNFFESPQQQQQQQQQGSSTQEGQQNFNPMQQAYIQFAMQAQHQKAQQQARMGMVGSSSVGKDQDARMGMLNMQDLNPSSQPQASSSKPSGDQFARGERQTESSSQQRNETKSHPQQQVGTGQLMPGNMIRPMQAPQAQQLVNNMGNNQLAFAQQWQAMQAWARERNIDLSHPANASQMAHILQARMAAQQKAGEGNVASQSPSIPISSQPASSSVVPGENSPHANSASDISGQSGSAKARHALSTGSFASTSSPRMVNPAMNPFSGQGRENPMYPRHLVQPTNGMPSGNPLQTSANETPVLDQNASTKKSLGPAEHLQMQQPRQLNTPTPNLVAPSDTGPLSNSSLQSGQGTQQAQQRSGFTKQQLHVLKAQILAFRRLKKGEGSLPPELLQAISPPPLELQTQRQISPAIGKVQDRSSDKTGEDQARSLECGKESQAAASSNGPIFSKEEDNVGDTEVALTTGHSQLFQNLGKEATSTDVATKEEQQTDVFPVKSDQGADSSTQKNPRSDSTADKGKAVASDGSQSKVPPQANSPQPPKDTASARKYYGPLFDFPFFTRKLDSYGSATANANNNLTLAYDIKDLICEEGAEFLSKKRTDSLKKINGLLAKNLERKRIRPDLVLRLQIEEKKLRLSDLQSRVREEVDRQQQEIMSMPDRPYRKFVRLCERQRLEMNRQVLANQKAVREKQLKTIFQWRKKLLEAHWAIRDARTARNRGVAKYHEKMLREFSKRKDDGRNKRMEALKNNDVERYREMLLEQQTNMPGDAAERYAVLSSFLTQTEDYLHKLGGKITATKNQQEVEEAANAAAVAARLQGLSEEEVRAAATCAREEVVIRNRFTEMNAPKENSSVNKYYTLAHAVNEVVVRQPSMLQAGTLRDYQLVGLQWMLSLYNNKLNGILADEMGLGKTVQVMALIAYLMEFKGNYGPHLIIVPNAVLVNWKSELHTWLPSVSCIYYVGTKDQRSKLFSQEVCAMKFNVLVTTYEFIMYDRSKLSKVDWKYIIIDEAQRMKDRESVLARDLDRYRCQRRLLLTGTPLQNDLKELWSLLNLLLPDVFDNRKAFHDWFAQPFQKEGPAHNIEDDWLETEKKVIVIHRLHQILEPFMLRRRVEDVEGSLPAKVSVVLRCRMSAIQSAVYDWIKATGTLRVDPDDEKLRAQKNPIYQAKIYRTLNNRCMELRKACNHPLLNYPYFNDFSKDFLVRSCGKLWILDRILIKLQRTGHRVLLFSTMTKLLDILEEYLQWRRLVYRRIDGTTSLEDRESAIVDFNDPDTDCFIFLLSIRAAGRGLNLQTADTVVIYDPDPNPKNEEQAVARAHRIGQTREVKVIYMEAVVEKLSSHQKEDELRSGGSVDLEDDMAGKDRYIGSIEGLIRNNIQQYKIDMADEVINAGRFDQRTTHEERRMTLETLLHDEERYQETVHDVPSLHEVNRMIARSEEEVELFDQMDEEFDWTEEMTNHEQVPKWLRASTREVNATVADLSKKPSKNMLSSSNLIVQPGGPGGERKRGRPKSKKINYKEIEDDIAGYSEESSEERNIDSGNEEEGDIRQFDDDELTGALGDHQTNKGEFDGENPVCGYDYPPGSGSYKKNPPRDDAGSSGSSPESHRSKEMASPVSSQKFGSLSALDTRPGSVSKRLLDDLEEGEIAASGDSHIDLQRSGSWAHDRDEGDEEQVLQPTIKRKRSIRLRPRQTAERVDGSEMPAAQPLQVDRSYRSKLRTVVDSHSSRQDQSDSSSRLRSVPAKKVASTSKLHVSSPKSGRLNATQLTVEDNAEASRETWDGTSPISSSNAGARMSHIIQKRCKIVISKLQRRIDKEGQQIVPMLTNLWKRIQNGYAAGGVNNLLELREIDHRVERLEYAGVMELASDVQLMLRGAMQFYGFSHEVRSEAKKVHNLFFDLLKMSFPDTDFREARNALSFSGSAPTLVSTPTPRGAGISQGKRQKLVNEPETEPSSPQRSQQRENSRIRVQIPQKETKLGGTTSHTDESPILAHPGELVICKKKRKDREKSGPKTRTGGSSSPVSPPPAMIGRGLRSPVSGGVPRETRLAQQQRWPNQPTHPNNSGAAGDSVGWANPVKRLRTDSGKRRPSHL
UniProt Q9C5X9: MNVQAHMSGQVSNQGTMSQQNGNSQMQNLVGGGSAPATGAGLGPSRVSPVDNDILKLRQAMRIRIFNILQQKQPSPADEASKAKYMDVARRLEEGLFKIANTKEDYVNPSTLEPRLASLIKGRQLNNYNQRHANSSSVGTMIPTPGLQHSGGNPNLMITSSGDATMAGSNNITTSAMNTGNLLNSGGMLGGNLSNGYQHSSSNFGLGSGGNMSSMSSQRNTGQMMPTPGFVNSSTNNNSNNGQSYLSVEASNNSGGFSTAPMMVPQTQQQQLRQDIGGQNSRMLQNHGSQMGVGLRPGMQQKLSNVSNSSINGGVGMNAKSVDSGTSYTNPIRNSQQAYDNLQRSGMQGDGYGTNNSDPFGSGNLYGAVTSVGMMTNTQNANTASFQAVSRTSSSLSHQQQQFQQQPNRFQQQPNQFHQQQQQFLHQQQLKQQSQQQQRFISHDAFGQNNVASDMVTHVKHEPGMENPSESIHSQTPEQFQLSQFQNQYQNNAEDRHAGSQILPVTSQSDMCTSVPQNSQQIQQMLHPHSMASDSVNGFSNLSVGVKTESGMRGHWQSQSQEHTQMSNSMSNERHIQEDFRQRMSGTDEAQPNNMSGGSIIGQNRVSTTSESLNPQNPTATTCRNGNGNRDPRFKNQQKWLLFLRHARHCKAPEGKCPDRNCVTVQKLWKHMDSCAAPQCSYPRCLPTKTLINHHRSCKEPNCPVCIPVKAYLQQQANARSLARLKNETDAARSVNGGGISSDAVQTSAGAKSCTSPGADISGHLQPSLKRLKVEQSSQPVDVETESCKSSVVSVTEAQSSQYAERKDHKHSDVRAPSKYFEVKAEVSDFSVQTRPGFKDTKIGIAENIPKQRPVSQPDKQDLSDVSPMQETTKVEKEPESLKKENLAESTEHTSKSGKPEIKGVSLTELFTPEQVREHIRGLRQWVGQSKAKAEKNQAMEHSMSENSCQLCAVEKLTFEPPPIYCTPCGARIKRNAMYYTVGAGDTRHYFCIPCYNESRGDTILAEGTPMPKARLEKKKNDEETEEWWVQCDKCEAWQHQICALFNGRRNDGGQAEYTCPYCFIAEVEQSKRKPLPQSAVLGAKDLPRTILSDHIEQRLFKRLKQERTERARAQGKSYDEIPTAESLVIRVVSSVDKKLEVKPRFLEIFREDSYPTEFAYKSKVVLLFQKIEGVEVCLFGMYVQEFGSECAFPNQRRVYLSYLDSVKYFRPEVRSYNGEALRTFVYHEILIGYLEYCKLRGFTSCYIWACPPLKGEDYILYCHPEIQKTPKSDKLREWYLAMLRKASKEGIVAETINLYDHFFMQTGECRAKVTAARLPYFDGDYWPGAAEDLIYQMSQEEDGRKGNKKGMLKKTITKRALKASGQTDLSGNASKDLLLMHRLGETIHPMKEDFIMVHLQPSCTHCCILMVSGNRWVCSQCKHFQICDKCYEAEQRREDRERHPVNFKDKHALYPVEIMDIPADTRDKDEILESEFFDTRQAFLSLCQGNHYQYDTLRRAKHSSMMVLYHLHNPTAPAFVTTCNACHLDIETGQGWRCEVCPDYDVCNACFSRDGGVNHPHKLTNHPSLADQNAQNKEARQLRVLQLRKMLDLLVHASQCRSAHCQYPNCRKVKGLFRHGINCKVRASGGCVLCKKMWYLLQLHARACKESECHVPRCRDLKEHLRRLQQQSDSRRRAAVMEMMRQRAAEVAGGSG

Experiment [1] deals with BRM as BD-fusion (yeast two-hybrid) (Arabidopsis thaliana) (UniProt Q6EVK6). Kind of experiment: two-hybrid; Matchmaker GAL4 system, yeast AH109; bHLHs as AD-fusions, SWI/SNF components and HAC1 as BD-fusions; growth on SD-LTHA, 3-AT added for SWI3C, BRIP2 and HAC1 to suppress autoactivation.
Experiment [2] addresses T1, LUH as BD-fusion (yeast two-hybrid) (Arabidopsis thaliana) (UniProt O48847).
T1 sequence: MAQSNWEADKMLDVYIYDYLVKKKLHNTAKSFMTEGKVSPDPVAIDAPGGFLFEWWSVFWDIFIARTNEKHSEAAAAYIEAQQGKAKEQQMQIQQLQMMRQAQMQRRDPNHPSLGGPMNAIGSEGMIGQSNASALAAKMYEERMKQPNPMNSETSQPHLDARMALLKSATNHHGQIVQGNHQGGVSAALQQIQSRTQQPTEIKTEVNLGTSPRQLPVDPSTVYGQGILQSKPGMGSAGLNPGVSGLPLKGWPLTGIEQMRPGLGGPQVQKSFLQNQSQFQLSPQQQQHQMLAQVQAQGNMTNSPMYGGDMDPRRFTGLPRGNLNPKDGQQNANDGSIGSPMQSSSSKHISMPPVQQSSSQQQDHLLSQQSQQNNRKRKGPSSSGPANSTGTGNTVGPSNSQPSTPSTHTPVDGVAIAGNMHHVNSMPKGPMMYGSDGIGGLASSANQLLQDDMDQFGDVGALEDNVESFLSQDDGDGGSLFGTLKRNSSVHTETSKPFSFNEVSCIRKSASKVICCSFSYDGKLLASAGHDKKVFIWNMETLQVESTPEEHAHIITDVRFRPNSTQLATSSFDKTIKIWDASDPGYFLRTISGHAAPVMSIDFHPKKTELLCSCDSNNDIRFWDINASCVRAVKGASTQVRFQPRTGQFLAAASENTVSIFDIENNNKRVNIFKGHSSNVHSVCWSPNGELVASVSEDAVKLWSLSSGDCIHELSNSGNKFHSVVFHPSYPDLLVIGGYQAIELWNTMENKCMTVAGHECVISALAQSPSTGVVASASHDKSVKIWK
The experiment is described as above.

Experiment [3] addresses HAC1 as BD-fusion (yeast two-hybrid) (Arabidopsis thaliana) (UniProt Q9C5X9). The description is as above.
In experiment [4] the target is HAC1 as YFP-C fusion (BiFC) (Arabidopsis thaliana) (UniProt Q9C5X9). Kind of experiment: split reporter; BiFC with split Venus/YFP halves in N. benthamiana leaves, Agrobacterium infiltration with p19, imaged 2 days after infiltration; all 4 combinations of N- and C-terminal fusions.

These are yes or no findings as the source states them, for the method shown. For some assays here: Binding seen in cells or lysates may run through a third protein. Some entries that bind do so weakly or less than the wild type. Sequences can lack the tags named with a protein.

B1: SCRM as AD-fusion (yeast two-hybrid) (protein, UniProt Q9LSE2 1-494)
chain: MGLDGNNGGGVWLNGGGGEREENEEGSWGRNQEDGSSQFKPMLEGDWFSSNQPHPQDLQMLQNQPDFRYFGGFPFNPNDNLLLQHSIDSSSSCSPSQAFSLDPSQQNQFLSTNNNKGCLLNVPSSANPFDNAFEFGSESGFLNQIHAPISMGFGSLTQLGNRDLSSVPDFLSARSLLAPESNNNNTMLCGGFTAPLELEGFGSPANGGFVGNRAKVLKPLEVLASSGAQPTLFQKRAAMRQSSGSKMGNSESSGMRRFSDDGDMDETGIEVSGLNYESDEINESGKAAESVQIGGGGKGKKKGMPAKNLMAERRRRKKLNDRLYMLRSVVPKISKMDRASILGDAIDYLKELLQRINDLHNELESTPPGSLPPTSSSFHPLTPTPQTLSCRVKEELCPSSLPSPKGQQARVEVRLREGRAVNIHMFCGRRPGLLLATMKALDNLGLDVQQAVISCFNGFALDVFRAEQCQEGQEILPDQIKAVLFDTAGYAGMI
B1: the binding entry in experiment [1] and in experiment [2] was “binds” each time.

B2: FAMA as AD-fusion (yeast two-hybrid) (protein, UniProt Q56YJ8 1-414)
chain: MDKDYSAPNFLGESSGGNDDNSSGMIDYMFNRNLQQQQKQSMPQQQQHQLSPSGFGATPFDKMNFSDVMQFADFGSKLALNQTRNQDDQETGIDPVYFLKFPVLNDKIEDHNQTQHLMPSHQTSQEGGECGGNIGNVFLEEKEDQDDDNDNNSVQLRFIGGEEEDRENKNVTKKEVKSKRKRARTSKTSEEVESQRMTHIAVERNRRKQMNEHLRVLRSLMPGSYVQRGDQASIIGGAIEFVRELEQLLQCLESQKRRRILGETGRDMTTTTTSSSSPITTVANQAQPLIITGNVTELEGGGGLREETAENKSCLADVEVKLLGFDAMIKILSRRRPGQLIKTIAALEDLHLSILHTNITTMEQTVLYSFNVKITSETRFTAEDIASSIQQIFSFIHANTNISGSSNLGNIVFT
With B2, the binding entry in experiment [3] was “binds weakly”; in experiment [2] it was “binds”.

B3: FAMA as split-YFP fusion (BiFC) (protein, UniProt Q56YJ8 1-414)
chain: B2 chain
B3: the binding entry in experiment [4] is given as “binds weakly”.

B4: LUH as BD-fusion (yeast two-hybrid) (protein, UniProt O48847 1-787)
chain: T1 sequence
As for B4, the binding entry in experiment [3] is “binds”.

B5: MUTE as AD-fusion (yeast two-hybrid) (protein, UniProt Q9M8K6 1-202)
chain: MSHIAVERNRRRQMNEHLKSLRSLTPCFYIKRGDQASIIGGVIEFIKELQQLVQVLESKKRRKTLNRPSFPYDHQTIEPSSLGAATTRVPFSRIENVMTTSTFKEVGACCNSPHANVEAKISGSNVVLRVVSRRIVGQLVKIISVLEKLSFQVLHLNISSMEETVLYFFVVKIGLECHLSLEELTLEVQKSFVSDEVIVSTN
In the case of B5, the binding result in experiment [3] was “binds weakly”.

B6: MUTE as YFP-N fusion (BiFC) (protein, UniProt Q9M8K6 1-202)
chain: B5 chain
For B6, the binding entry in experiment [4] is recorded as “binds weakly”.
